Test results published in patent publication EP0412158A1, “ONCOSTATIC DRUG” (priority 1987, dated 1988).
For at least one compound, name, drawing or mass did not settle the structure.

Tested on: methyl cholanthrene A tumor
Assay: Antineoplastic activity against transplanted methyl cholanthrene A tumor, evaluation by size of tumor (Examples 1 to 6)
Assay type: in vivo, female BALB/C mice
Details: No. 3; 100 mg/kg, ip×9; individual mice
Description: By dissolving alkylammonium salt of polymolybdic acid [NH3C3H7(iso)]s [Mo7O24] • 3H2O (Compound A) and other compounds (Compounds B to D) severally in distilled water, aqueous solutions containing the compounds in a fixed concentration of 10 mg/ml were obtained. These aqueous solutions were administered to female BALB/C mice (five weeks old) to which methyl cholanthrene A tumor had been transplanted to test the compounds for antineoplastic activity. To be specific, methyl cholanthrene A was transplanted to the mice in a ratio of 1.0 x 10^5 cells per mouse and the aqueous solutions were continuously administered to the mice by intraperitoneal injection ([…]) for nine days. On elapse of 14 days following the start of the administration, the tumors in the mice were measured. For comparison, mice to which no antineoplastic .drug was administered and mice to which aminonitroso urea was administered were tested by following the procedure described above.

Structure (SMILES): O.O.[NH4+].[NH4+].[NH4+].[NH4+].[NH4+].[NH4+].[O]=[Mo](=[O])([O-])[O][Mo](=[O])(=[O])[O][Mo](=[O])([O-])([O-])[O][Mo](=[O])(=[O])[O][Mo](=[O])([O-])([O-])[O][Mo](=[O])(=[O])[O][Mo](=[O])(=[O])[O-] [Compound D, [NH4]6 [Mo7O24]. 2H20]
- Range of tumor size: 1818, 1962, 2432, 1382, 2449, 908, 1438, 1960 mg
